For 39 molecules, AC50 results are on record in PubChem BioAssay AID493014 (National Center for Advancing Translational Sciences (NCATS), 2011).

The structures appear in SMILES notation. This is one part of the list. The main result of the screen is listed elsewhere. These columns were measured beside it and carry no call. The list favours compounds with an active or inconclusive main result. Potencies come from curve fits of mixed quality, noted in brackets.

This test can be described thus: qHTS Assay to Find Inhibitors of Chronic Active B-Cell Receptor Signaling. As to conditions: ABC-DLBCL IkBa-CBG/CBR reporter, luminescence ratio (green luciferase fused to IkBa over red control in TMD8 lymphoma cells), 4 h. Summed up:
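TMD8 human ABC-DLBCL cells with doxycycline-inducible IκBα–green luciferase fusion and unfused red luciferase, in 0.5% FBS medium; compounds up to 46 uM, 4 h at 37C. Green/red luminescence ratio, filter-overlap corrected, fitted to concentration-response curves.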

The mark [1] stands for this setting: measured here: CBR red luminescence, cell number.
Setting [2] is: measured here: IkBa-CBG green luminescence.

On to `CCCC(=O)O[C@]1(C(=O)CO)CC[C@H]2[C@@H]3CCC4=CC(=O)CC[C@]4(C)[C@H]3[C@@H](O)C[C@@]21C`, for which the AC50 by setting is: under setting [1], 0.326 µM [rising, full curve, poor fit]; under setting [2], 0.366 µM [falling, partial curve, poor fit].

Consider `CCCCOc1ccc(C2C3CN(C(=O)OCC)CC=C3C(C#N)=C(N)C2(C#N)C#N)cc1OC` (configuration not stated), for which the AC50 under setting [1] was 14.6 µM [falling, single point]. As to `CCOc1ccc(C(C)=O)cc1N1C(=O)C2C3C=CC(C3)C2C1=O` (configuration not stated), the AC50 under setting [1] is 5.17 µM [rising, full curve, poor fit]. On the same count and under the same terms, the value for `COc1ccc(NC(=O)COC(=O)CNC(=O)C2CCCCC2)cc1OC` was 20.6 µM [rising, single point]. Still for that read-out and setting: under `Cc1nnc(N2C(=O)C(O)=C(C(=O)c3ccco3)C2c2cccc3ccccc23)s1` (configuration not stated) stands 6.31 µM [rising, partial curve, poor fit]; under `CCOC(=O)c1ccc2c(c1)nc(COc1ccccc1C#N)n2CC`, 0.00517 µM [rising, full curve, poor fit]; under `Cc1cc2nc(C)n(CCCNC(=O)Nc3cccc4ccccc34)c2cc1C`, 29.1 µM [falling, single point]. Still for that read-out and setting: under `COc1ccc(/C=C/C2=NN(C)C(=O)CC2)cc1` stands 17.8 µM [falling, single point]; under `COc1ccc2[nH]c(=O)c(CNc3ccccc3OC)cc2c1`, 14.1 µM [falling, partial curve, poor fit].

As for `CCC1=NN2C(=N)/C(=C/c3cc(C)n(Cc4ccccc4)c3C)C(=O)N=C2S1`, under setting [1], the concentration at half-maximal activity (AC50) was 15.8 µM [rising, partial curve, poor fit].

For the molecule `Cc1cc2sc3ccccc3c(=O)c2c(C)c1O`, the AC50 under setting [1] is 10 µM [rising, partial curve, poor fit]. The same measure, in the same setting: under `Cc1ccc(-c2nnc(NCc3ccccc3)c3ccccc23)cc1` stands 14.6 µM [rising, partial curve]; under `Cc1nc(NN)c2c3c(sc2n1)COC(C)(C)C3`, 3.98 µM [rising, full curve, poor fit]. On the same count and under the same terms, the value for `Cc1cc(C)nc(N/N=C/c2ccccc2OCc2ccc(Br)cc2)n1` was 1.84 µM [rising, partial curve, poor fit]; that for `O=C(/C=C/c1ccccc1Cl)Nc1ccccc1` was 11.2 µM [falling, partial curve]. On the same count and under the same terms, the value for `C[C@@H]1COC(=O)[C@H](CC(=O)OC(C)(C)C)C/C=C\C[C@@H](CC(=O)NCCO)C(=O)N1` was 20.6 µM [rising, single point]. `Cn1c(=O)n(C)c2cc([N+](=O)[O-])c(N3CCN(S(=O)(=O)c4ccccc4)CC3)cc21`: the AC50 under setting [1] is 29.1 µM [rising, single point]. For the molecule `COc1ccc(S(=O)(=O)N2CCSC2C)cc1C` (configuration not stated), the AC50 under setting [1] was 11.2 µM [rising, partial curve]. As to `O=C(N/N=C/c1ccco1)c1cc(-c2ccncc2)nc2ccccc12`, the AC50 is, setting by setting: under setting [1], 12.6 µM [rising, partial curve]; under setting [2], 15.8 µM [falling, single point]. `CN(C(=O)COC(=O)CNC(=O)c1ccccc1Cl)c1ccccc1`: the AC50 under setting [1] is 22.4 µM [rising, single point]. As to `CC1CCC/C(=N\NS(=O)(=O)c2ccccc2)C1` (configuration not stated), the AC50 is 6.31 µM [rising, partial curve, poor fit] under setting [1] and 6.31 µM [falling, single point] under setting [2]. `COc1cc(/C=C/CN2CCC(CO)(CC3CCCCO3)CC2)ccc1O` (configuration not stated): under setting [1], the AC50 was 35.5 µM [rising, single point]. In the case of `CCCCCCCCC[n+]1cccc2c3ccccc3ccc21`, under setting [1], the AC50 was 22.4 µM [falling, single point]. On the same count and under the same terms, under `CCC(C)NC(=O)c1cn(-c2cccc(C)n2)cn1` (configuration not stated) stands 2.82 µM [falling, partial curve]. The same measure, in the same setting: the value for `CC1CCN(C(=O)CSc2nc(C3CC3)nc3ccccc23)CC1` was 11.2 µM [falling, partial curve, poor fit]. The same measure, in the same setting: the value for `O=C(NC1CC2CCC(C1)N2Cc1ccccc1)c1ccccc1Cl` (configuration not stated) was 12.6 µM [rising, partial curve, poor fit].

On to `Cc1nc2oc3c(NCc4ccccc4)ncnc3c2c2c1COC(C)(C)C2`, for which, under setting [1], the AC50 is 2.06 µM [falling, partial curve, poor fit]. The same measure, in the same setting: the value for `COc1cccc(CC2(CO)CCCN(C/C=C/c3ccccc3OC)C2)c1` (configuration not stated) was 10 µM [falling, partial curve, poor fit]; that for `CCOc1ccc(S(=O)(=O)Nc2cc(Sc3ncn[nH]3)c3oc(=O)sc3c2)cc1` was 5.01 µM [rising, single point]; that for `O=C(Nc1cccc2c1CCCC2)c1ccccc1Cl` was 35.5 µM [rising, single point]. Same read-out and setting: under `N#Cc1c(NC(=O)CCC(=O)O)sc2c1CCCCC2` stands 12.6 µM [falling, partial curve]. Same read-out and setting: the value for `N#CCCN(C(=S)NC(=O)c1cccs1)c1ccccc1F` was 14.6 µM [rising, partial curve, poor fit]; that for `CCN(CC)C(=O)[C@H]1C[C@H](CC(=O)NCc2cccc(C(F)(F)F)c2)C(=O)N2CCc3c([nH]c4ccc(Cl)cc34)[C@]12C` was 16.4 µM [falling, partial curve, poor fit].

Turning to `COc1ccc(S(=O)(=O)N2CCN(C(C)C(=O)Nc3ccc(C(C)C)cc3)CC2)cc1` (configuration not stated), the AC50 under setting [1] was 13 µM [rising, partial curve, poor fit].

Take `O=C1NN(c2ccccc2)C(=O)/C1=C\c1cccc(OC(=O)c2cccs2)c1`: the AC50 under setting [1] was 23.1 µM [falling, single point]. On the same count and under the same terms, under `COc1cc(C(=O)NCCc2ccc(F)cc2)ccc1OCC(=O)N1CCOCC1` stands 18.4 µM [falling, partial curve, poor fit]. The same measure, in the same setting: under `CCOc1ncccc1C(=O)OCc1ccc(Cl)cc1` stands 29.1 µM [rising, single point]; under `CSc1ccc(CCNC(=O)c2ccc(CS(=O)(=O)c3ccc(Br)cc3)o2)cc1`, 35.5 µM [falling, single point]; under `CCCOC(c1ccccc1)(c1ccc(C(F)(F)F)cc1)C(Oc1nc(C)cc(C)n1)C(=O)O` (configuration not stated), 35.5 µM [falling, single point].
